From patent US20160244527A1
These are yes or no findings as the source states them, for the method shown. Some results given as binding are weak or reduced against the parent protein; the word gives no strength.

Sequences of proteins named here, by UniProt entry; tags and fusion partners are left off.
UniProt P70658: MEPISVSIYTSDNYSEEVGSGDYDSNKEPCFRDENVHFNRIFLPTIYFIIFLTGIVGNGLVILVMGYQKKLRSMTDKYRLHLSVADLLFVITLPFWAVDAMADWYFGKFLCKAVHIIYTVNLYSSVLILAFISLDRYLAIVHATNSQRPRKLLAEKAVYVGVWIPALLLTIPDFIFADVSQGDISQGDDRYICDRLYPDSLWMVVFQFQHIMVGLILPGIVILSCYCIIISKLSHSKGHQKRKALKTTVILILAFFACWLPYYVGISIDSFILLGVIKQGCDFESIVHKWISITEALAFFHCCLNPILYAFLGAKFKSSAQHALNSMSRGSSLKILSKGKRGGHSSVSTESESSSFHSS
UniProt P61073: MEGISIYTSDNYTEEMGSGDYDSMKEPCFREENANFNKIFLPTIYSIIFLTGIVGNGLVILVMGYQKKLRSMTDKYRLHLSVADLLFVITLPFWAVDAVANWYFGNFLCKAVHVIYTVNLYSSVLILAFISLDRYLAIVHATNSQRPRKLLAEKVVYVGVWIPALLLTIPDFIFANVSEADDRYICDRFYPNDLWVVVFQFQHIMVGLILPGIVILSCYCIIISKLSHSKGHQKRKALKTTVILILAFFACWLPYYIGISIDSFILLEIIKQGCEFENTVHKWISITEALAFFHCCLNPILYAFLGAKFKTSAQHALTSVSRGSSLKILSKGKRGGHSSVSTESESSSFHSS

Legend:
mouse CXCR4 (mouse) [1] = target: mouse CXCR4 (mouse) (UniProt P70658); assay: EasyCyte flow cytometry on HEK293T/17 cells transiently transfected with mouse CXCR4, Fugene without DNA as negative control; scFv level according to the example, amount not given
mouse CXCR4 (mouse) [2] = target: mouse CXCR4 (mouse) (UniProt P70658); assay: flow cytometry (EasyCyte), scFv on HEK-293 cells transiently transfected with mouse CXCR4
mouse CXCR4 (mouse) [3] = target: mouse CXCR4 (mouse) (UniProt P70658); assay: flow cytometry (EasyCyte) on transiently transfected HEK293T/17 cells
[4] = target: CXC chemokine receptor 4 (CXCR4), human (human) (UniProt P61073); assay: flow cytometry (EasyCyte), purified scFv

| Binder | binding (mouse CXCR4 (mouse) [1]) | binding (mouse CXCR4 (mouse) [2]) | binding (mouse CXCR4 (mouse) [3]) | binding [4] |
| --- | --- | --- | --- | --- |
| C-9P21 scFv (scFv) scFv: QVQLQESGGGLVHPGGSLRLSCAASGFTFSSYWMHWVRQAPGKGLVWVSRINSDGSSTSYADSVKGRFTISRDNAKNTLYLQMNSLRAEDTAVYYCARKILGVGARSRRYFDYWGQGTMVTVSSKLSGSASAPKLEEGEFSEARVETTLTQSPGTLSLSPGERATLSCRASQSVVSNYLAWYQQKPGQAPRLLISGASNRATGISDRFSGSGSGADFTLTISRVEPEDSAVYYCQQFDKSTWTFGQGTKVEIKAAAGSEQKLISEEDLNSHHHHHH | binds | binds | binds |  |
| 9N10 scFv (scFv) scFv: QVQLQESGGGLVHPGGSLRLSCAASGFTFSSYWMHWVRQAPGKGLVWVSRINSDGSSTSYADSVKGRFTISRDNAKNTLYLQMNSLRAEDTAVYYCARKILGVGARSRRYFDYWGQGTMVTVSSKLSGSASAPKLEEGEFSEARVDIVLTQTPDSLAVSLGETTTINCKSSQSVLHSSNNKNYLAWYQQKPGQPPKLLIYWASTRESGVPDRFSGSGSGTDFTLTISNLQPEDVAFYYCLQYSTFPRTFGQGTKVEIKAAAGSEQKLISEEDLNSHHHHHH |  |  |  | binds |
